Assay results published in patent US20240342071A1 (SHENZHEN WINKEY TECHNOLOGY CO., LTD, priority 2021, published 2024).
HELM strings list residues between dots; [ac] is acetyl, [am] amide, other brackets name non-standard units.

Assay: general procedure: peptide synthesis; Amide Resin
Conditions: whole synthesis, scale of the general procedure 5 g resin

Substance: PEPTIDE1{[ac].F.F.W.F.K.V.[am]}$$$$V2.0
- crude purity (method not given): 76%
- final purity (method not given): 99.027%
